US20050003431A1, “Monovalent, multivalent, and multimeric MHC binding domain fusion proteins and conjugates, and uses therefor” (priority 1996, published 2005)
No constants are given. Whether binding was seen depends on the method and setting. Some results given as binding are weak or reduced against the parent protein; the word gives no strength.

Molecular target: DR2-tag-biotin (biotinylated DR2-tag fusion protein, empty) (human)
Assay: HPLC gel filtration, detection of fluorescein at 492 nm; binding through the biotin on the tag

fluorescein-labeled streptavidin (from UniProt P22629 37-163)
binding: binds
